The results in this text go back to publication PMC9253731.

The chains behind the UniProt entries cited, without tags or fusion partners.
UniProt P25490: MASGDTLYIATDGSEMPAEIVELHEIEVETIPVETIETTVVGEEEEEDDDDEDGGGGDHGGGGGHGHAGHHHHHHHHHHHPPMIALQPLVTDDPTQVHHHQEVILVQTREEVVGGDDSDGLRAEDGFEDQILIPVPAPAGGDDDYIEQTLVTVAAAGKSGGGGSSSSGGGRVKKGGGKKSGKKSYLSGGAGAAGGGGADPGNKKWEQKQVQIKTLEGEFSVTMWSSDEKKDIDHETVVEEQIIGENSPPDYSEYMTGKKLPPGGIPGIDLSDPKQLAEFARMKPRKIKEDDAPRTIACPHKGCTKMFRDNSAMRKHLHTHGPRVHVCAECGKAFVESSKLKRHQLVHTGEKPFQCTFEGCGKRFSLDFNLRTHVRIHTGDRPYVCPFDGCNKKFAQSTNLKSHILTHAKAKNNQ
UniProt Q07866: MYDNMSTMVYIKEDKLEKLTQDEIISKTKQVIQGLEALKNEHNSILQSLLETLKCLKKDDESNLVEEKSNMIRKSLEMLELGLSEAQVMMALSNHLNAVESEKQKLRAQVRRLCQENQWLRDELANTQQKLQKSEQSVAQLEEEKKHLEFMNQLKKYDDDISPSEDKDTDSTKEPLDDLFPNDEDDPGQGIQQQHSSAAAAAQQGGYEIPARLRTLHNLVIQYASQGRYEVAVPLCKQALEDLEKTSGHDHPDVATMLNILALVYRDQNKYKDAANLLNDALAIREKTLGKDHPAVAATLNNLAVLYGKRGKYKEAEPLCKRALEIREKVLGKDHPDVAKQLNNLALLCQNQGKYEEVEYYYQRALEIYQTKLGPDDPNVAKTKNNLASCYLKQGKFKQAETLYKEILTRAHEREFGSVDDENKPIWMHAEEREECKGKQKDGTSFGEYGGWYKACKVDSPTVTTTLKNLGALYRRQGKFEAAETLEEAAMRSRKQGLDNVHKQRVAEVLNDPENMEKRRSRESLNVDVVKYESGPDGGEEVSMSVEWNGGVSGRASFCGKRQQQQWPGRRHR
UniProt O00571: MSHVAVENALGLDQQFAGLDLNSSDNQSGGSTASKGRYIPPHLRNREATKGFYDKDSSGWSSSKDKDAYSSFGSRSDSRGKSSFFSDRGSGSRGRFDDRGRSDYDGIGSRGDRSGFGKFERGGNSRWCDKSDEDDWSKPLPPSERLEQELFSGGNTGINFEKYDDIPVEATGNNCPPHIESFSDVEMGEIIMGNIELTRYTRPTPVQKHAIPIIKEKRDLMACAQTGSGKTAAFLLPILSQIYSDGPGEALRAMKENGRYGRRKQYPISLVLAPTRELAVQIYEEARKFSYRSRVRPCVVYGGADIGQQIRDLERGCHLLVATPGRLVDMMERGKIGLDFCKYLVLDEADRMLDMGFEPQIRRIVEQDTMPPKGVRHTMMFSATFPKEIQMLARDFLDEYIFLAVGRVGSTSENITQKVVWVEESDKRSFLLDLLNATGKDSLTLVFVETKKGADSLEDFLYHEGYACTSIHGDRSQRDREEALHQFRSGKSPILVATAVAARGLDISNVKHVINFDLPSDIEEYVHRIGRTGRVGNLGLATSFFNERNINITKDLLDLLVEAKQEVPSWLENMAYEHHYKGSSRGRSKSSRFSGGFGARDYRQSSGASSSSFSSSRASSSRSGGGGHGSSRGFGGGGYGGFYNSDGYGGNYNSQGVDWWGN

Results are given in words; binding and its absence hold for the method and conditions named. Binding seen in cells or lysates may run through a third protein. Some entries that bind do so weakly or less than the wild type.

The target in experiment [1] is T1, kinectin 1 (human (endogenous in MDA-MB-231 and BT549)) (UniProt Q86UP2).
T1 sequence: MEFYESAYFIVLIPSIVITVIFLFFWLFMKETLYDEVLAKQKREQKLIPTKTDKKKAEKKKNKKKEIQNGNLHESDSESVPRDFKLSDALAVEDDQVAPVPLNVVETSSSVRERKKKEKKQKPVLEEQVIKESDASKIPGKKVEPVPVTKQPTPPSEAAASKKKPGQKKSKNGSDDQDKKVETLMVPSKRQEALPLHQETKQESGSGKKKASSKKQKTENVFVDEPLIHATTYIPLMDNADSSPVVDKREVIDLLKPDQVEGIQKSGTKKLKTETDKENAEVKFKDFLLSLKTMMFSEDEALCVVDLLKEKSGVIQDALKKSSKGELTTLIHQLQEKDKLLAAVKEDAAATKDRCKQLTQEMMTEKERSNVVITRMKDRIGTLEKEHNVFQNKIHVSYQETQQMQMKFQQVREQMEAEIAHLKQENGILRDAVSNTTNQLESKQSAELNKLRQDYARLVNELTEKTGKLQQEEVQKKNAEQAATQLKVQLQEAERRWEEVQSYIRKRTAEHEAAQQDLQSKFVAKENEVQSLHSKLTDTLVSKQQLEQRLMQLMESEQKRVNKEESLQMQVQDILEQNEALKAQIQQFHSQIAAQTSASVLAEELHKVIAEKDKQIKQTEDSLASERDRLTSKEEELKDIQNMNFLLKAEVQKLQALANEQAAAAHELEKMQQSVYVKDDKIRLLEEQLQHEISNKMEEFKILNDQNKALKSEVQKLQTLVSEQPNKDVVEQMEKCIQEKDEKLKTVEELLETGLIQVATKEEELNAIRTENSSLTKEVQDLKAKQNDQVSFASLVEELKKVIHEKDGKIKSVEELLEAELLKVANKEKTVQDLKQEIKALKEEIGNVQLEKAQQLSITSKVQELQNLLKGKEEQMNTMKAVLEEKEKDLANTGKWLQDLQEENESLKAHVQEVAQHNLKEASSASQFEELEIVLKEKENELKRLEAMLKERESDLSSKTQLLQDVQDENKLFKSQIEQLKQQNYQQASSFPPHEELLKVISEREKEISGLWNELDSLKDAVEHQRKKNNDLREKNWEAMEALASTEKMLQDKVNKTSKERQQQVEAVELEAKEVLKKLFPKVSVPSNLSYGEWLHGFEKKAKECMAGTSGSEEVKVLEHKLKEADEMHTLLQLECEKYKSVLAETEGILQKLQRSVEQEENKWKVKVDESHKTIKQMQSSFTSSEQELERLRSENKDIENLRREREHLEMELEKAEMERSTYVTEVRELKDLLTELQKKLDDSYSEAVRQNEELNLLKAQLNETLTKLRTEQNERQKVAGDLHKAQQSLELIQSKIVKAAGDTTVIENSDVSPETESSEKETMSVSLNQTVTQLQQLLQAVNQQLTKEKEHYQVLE
As to the kind of experiment: co-IP; immunoprecipitation with KTN1 antibody against negative control IgG in both types of BCa cells; KIFC1 and KLC1 detected.

Experiment [2] addresses Yin Yang 1 (human (endogenous in MDA-MB-231 and BT549)) (UniProt P25490). The experiment can be described thus: co-IP; immunoprecipitation of endogenous YY1 with anti-YY1 antibody from MDA-MB-231 and BT549 lysates, control IgG; precipitate analysed by western blotting.

For the molecule “Kinesin light chain 1 (from UniProt Q07866 1-573)”, the binding entry in experiment [1] was “binds”.

Turning to “DEAD-box helicase 3 X-linked (from UniProt O00571 1-662)”, the binding result in experiment [2] was “binds”.

B1: Kinesin family member C1 (protein, UniProt Q9BW19 1-673)
chain: MDPQRSPLLEVKGNIELKRPLIKAPSQLPLSGSRLKRRPDQMEDGLEPEKKRTRGLGATTKITTSHPRVPSLTTVPQTQGQTTAQKVSKKTGPRCSTAIATGLKNQKPVPAVPVQKSGTSGVPPMAGGKKPSKRPAWDLKGQLCDLNAELKRCRERTQTLDQENQQLQDQLRDAQQQVKALGTERTTLEGHLAKVQAQAEQGQQELKNLRACVLELEERLSTQEGLVQELQKKQVELQEERRGLMSQLEEKERRLQTSEAALSSSQAEVASLRQETVAQAALLTEREERLHGLEMERRRLHNQLQELKGNIRVFCRVRPVLPGEPTPPPGLLLFPSGPGGPSDPPTRLSLSRSDERRGTLSGAPAPPTRHDFSFDRVFPPGSGQDEVFEEIAMLVQSALDGYPVCIFAYGQTGSGKTFTMEGGPGGDPQLEGLIPRALRHLFSVAQELSGQGWTYSFVASYVEIYNETVRDLLATGTRKGQGGECEIRRAGPGSEELTVTNARYVPVSCEKEVDALLHLARQNRAVARTAQNERSSRSHSVFQLQISGEHSSRGLQCGAPLSLVDLAGSERLDPGLALGPGERERLRETQAINSSLSTLGLVIMALSNKESHVPYRNSKLTYLLQNSLGGSAKMLMFVNISPLEENVSESLNSLRFASKVNQCVIGTAQANRK
Turning to B1, the binding entry in experiment [1] is “binds”.
